The assay addresses T1, mature GDF8/propeptide complex (human) (UniProt O14793).
T1 sequence 1: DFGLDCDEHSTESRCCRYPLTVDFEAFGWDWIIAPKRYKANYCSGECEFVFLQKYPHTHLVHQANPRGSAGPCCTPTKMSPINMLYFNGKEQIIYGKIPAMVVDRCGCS
T1 sequence 2: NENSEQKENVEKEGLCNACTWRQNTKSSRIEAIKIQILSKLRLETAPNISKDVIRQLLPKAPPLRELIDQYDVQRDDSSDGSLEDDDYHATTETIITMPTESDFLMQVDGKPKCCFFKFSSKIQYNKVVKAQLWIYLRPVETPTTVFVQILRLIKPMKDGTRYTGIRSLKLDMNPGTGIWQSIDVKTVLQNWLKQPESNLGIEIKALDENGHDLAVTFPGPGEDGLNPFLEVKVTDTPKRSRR
As to the kind of experiment: immunoprecipitation from 293T conditioned medium, western blot.

Experimental findings from patent US20060263354A1 are described below.

No constants are given. Whether binding was seen depends on the method and setting. Some entries that bind do so weakly or less than the wild type.

B1: 1-66-1 (antibody, V domains shown)
VH: EVQLVESGGGLVKPGGSLRLSCAASGFTFSSYSMNWVRQAPGKGLEWVSSISSSSSYIYYADSVKGRFTISRDNAKNSLYLQMNSLRAEDTAVYYCARDRGYSYGLDYWGQGTLVTVSS
VL: DIQMTQSPSSLSASVGDRVTITCRASQGIRNDLGWYQQKPGKAPKRLIYAASSLQSGVPSRFSGSGSGTEFTLTISSLQPEDFATYYCLQLNSYPFTFGPGTKVDIKR
On to B1, for which the binding entry is recorded as “binds”.
